PubChem BioAssay AID1224826 – NIAID, 2016
In all, the deposit lists about 17,000 reagents; shown is a random part of them. Over the whole deposit, about 1,110 (6.6%) were called active. 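Active means lowered or raised reporter signal; replicate intensities are raw and not normalised per plate.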 Not all columns of the deposit are shown.

- Assay: 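Knock-downs that raise or lower Tnf reporter signal after endotoxin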 (primary screen)
- Cell system: RAW264.7 G9 macrophages from mouse bearing reporters for p65 (GFP) and the Tnf promoter (mCherry)
- Reagents: siRNA pool against mouse genes, 100 nM
- Timing: 16 h of LPS stimulation, after 2 days of siRNA transfection
- Treatment: bacterial lipopolysaccharide (Salmonella minnesota R595), 10 ng/ml
- Read-out: 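Nuclear mCherry signal of the Tnf promoter reporter measured by imaging after background removal, scaled to each plate median and turned into robust z-scores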
- Direction: Tnf reporter robust z-score: higher = stronger Tnf promoter reporter signal after LPS
- Active means: 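Called active when robust z-score is at most -1.3, matching the median of the Tlr4 knock-down control, or over 3; control wells and wells with under 50 cells never active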
- Calls: active = Tnf reporter clearly lowered or raised; inactive = no clear change in Tnf reporter

Or11a4 (olfactory receptor family 11 subfamily A member 4)
- Tnf reporter robust z-score: 2.95
- fewer than 50 cells in well: enough cells in well
- call: inactive

Dnajc5b (DnaJ heat shock protein family (Hsp40) member C5 beta)
- Tnf reporter robust z-score: 1.78
- fewer than 50 cells in well: enough cells in well
- call: inactive

Bloc1s5
- Tnf reporter robust z-score: -0.05
- fewer than 50 cells in well: enough cells in well
- call: inactive

Supv3l1 (suppressor of var1, 3-like 1 (S. cerevisiae))
- Tnf reporter robust z-score: -0.86
- fewer than 50 cells in well: enough cells in well
- call: inactive

Cd86 (CD86 antigen)
- Tnf reporter robust z-score: -1.12
- fewer than 50 cells in well: enough cells in well
- call: inactive

Cckar (cholecystokinin A receptor)
- Tnf reporter robust z-score: -0.61
- fewer than 50 cells in well: enough cells in well
- call: inactive

Ndufa5 (NADH:ubiquinone oxidoreductase subunit A5)
- Tnf reporter robust z-score: -1.59
- fewer than 50 cells in well: enough cells in well
- call: active

Aadat (aminoadipate aminotransferase)
- Tnf reporter robust z-score: 0.06
- fewer than 50 cells in well: enough cells in well
- call: inactive

Akap7 (A kinase anchor protein 7)
- Tnf reporter robust z-score: 0.13
- fewer than 50 cells in well: enough cells in well
- call: inactive

Insr (insulin receptor)
- Tnf reporter robust z-score: 1.08
- fewer than 50 cells in well: enough cells in well
- call: inactive

Rem2 (rad and gem related GTP binding protein 2)
- Tnf reporter robust z-score: 1.21
- fewer than 50 cells in well: enough cells in well
- call: inactive

Mrpl3 (mitochondrial ribosomal protein L3)
- Tnf reporter robust z-score: 2.27
- fewer than 50 cells in well: enough cells in well
- call: inactive

Or8b51 (olfactory receptor family 8 subfamily B member 51)
- Tnf reporter robust z-score: 0.88
- fewer than 50 cells in well: enough cells in well
- call: inactive

Akip1 (A kinase interacting protein 1)
- Tnf reporter robust z-score: -0.6
- fewer than 50 cells in well: enough cells in well
- call: inactive

Mup1 (major urinary protein 1)
- Tnf reporter robust z-score: -0.76
- fewer than 50 cells in well: enough cells in well
- call: inactive

Asic3 (acid-sensing ion channel 3)
- Tnf reporter robust z-score: 1.62
- fewer than 50 cells in well: enough cells in well
- call: inactive

Smoc1 (SPARC related modular calcium binding 1)
- fewer than 50 cells in well: fewer than 50 cells per well; well left out of calls
- call: inactive

Syt13 (synaptotagmin XIII)
- Tnf reporter robust z-score: 2.79
- fewer than 50 cells in well: enough cells in well
- call: inactive

Mtif3 (mitochondrial translational initiation factor 3)
- Tnf reporter robust z-score: -1.25
- fewer than 50 cells in well: enough cells in well
- call: inactive

Slc25a19
- Tnf reporter robust z-score: 0.03
- fewer than 50 cells in well: enough cells in well
- call: inactive

P2rx1 (purinergic receptor P2X, ligand-gated ion channel, 1)
- Tnf reporter robust z-score: 0.38
- fewer than 50 cells in well: enough cells in well
- call: inactive

Called active, among the entries above:
Ndufa5 (NADH:ubiquinone oxidoreductase subunit A5)
- Tnf reporter robust z-score: -1.59
- fewer than 50 cells in well: enough cells in well
- call: active
